The data set in a line: FTIR spectrometry of SC lipid order (Franz diffusion cells). Also on record: species or system C57BL/6J mice. The following applies: mouse dorsal skin SC, 24 h, positive control.

Consider 1 compound from article PMC12695667 (Nature, 2025).

SMILES strings stand for the structures.

For `CCCCCCCC/C=C\CCCCCCCC(=O)O` [Oleic acid, oleic acid], the “Blue shift of asymmetric methylene peak versus PBS-treated skin” value came out at 3 cm⁻¹ and the “Blue shift of symmetric methylene peak versus PBS-treated skin” value worked out at 2.14 cm⁻¹.
